Data from patent US7727977B2, “Kynurenine 3-hydroxylase inhibitors for the treatment of diabetes” (Merck Patent Gesellschaft mit beschrankter Haftung, priority 2003, dated 2010).

Tested on: primary hepatocytes
Assay: Hepatic glucose production, basal lactate/pyruvate 2 hours, in primary hepatocytes
Type: cell-based, Wistar rats
Conditions: Basal Lact/Pyr 2 hours
Description: Study of the Effect on Glucose Production by the Liver Materials and Method:
After washing in pH 7.4 PBS buffer, the cells are incubated for two hours at 37° C. in a Krebs buffer free of glucose and of insulin, containing lactate/pyruvate (10/1 mM) in the presence or absence of the test compounds. 10 μM MICA (5-methoxyindole-2-carboxylic acid) is used as reference substance. Two identical experiments are performed (Table III-2).
The protein assay is performed on the rest of the incubation medium via the Lowry method (BIO-RAD Dc protein assay, BIO-RAD 5000116).
The results are expressed as nmoles of glucose produced per […] of proteins. The statistical test used is the t test.

Substance: 2-(2′-naphthylthio)-4-phenyl-4-oxobutanoic acid [Ih-1]
- Proteins % of control (1 μM): 94 % of control
- Proteins % of control (10 μM): 101 % of control
- Proteins % of control (100 μM): 96 % of control
